Results published in patent US20240182848A1, “SULFAMETHOXAZOLE-DEGRADING PSEUDOMONAS SILESIENSIS STRAIN, AND APPLICATION THEREOF” (CHINESE RESEARCH ACADEMY OF ENVIRONMENTAL SCIENCES, priority 2021, published 2024).

System: F6a strain
Experiment: Fate of SMX intermediate products during degradation by F6a strain (UPLC-QTOF-MS / HPLC/MS/MS)
Design: species or system Pseudomonas silesiensis
Conditions: 10 mg/L SMX, R2A medium, absorption peaks followed up to 336 h

Nc1ccc(O)cc1 [C6, p-aminophenol]
fate of intermediate product (mineralization) during SMX degradation: cannot be further mineralized into gas
